Results deposited as PubChem BioAssay AID652259 (Drosophila RNAi Screening Center, 2013).
In all, the deposit lists about 22,000 reagents; this is a random part of those with a known target gene and a result. Of all reagents, 233 (1.1%) got an active call. 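Light values are raw, unnormalised plate reads; the ratio scores behind the reporter calls were not deposited.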 A number with no mark means an inactive call. A plus sign joins genes that one reagent is predicted to hit. Not stated in the record: the amount of reagent, the time to read-out, the dose of the treatment.

- Assay: 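Knock-downs that push a Wingless-driven reporter up or down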 (primary screen)
- Cell system: Drosophila clone 8 imaginal disc epithelial cells
- Reagents: long dsRNA against Drosophila genes
- Challenge: pathway stimulated by co-transfected Wingless expression plasmid
- Measured: 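Dual luciferase reads per well after Wingless plasmid stimulation: reporter firefly light and Renilla control light; activity is firefly divided by Renilla, a ratio not deposited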
- Direction: firefly reporter light: higher = more Wg reporter light, before normalisation; Renilla control light: higher = more transfected or surviving cells
- Active means: 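a knock-down is a candidate when at least two out of four statistical tests show it departing from its plate mean; one test alone signals a weak candidate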
- Meaning of the calls: active = candidate regulator (raises or lowers reporter); inactive = not a candidate

| predicted target | amplicon | firefly reporter light, replicate 1 | firefly reporter light, replicate 2 | Renilla control light, replicate 1 | Renilla control light, replicate 2 |
| --- | --- | --- | --- | --- | --- |
| CG12009 | DRSC08217 | 8084 | – | 3461 | – |
| mira (miranda) | DRSC16998 | 2896 | 6771 | 1879 | 2378 |
| mri (mrityu) | DRSC08259 | 9402 | – | 3146 | – |
| jhamt (juvenile hormone acid methyltransferase) | DRSC01985 | 1736 | 5712 | 978 | 2752 |
| PIP82 | DRSC18694 | 14650 | – | 10586 | – |
| CG3594 | DRSC04393 | 14160 | – | 5197 | – |
| CG3594 | DRSC21959 | 4.19e5 | 5.04e5 | 1.55e5 | 1.70e5 |
| brun (brunelleschi) | DRSC02706 | 8282 | – | 3872 | – |
| NFAT (NFAT nuclear factor) | DRSC18991 | 2192 | – | 389 | – |
| NFAT (NFAT nuclear factor) | DRSC19393 | 26244 | – | 12096 | – |
| Gr23a (Gustatory receptor 23a) | DRSC00410 | 2880 | 6516 | 1303 | 2618 |
| CG15212 | DRSC10212 | 1386 | 11705 | 987 | 3573 |
| Spn28B (Serpin 28B) | DRSC02982 | 3064 | 7720 | 265 | 3570 |
| CG34183 | DRSC01099 | 21564 | – | 11173 | – |
| CG14891 | DRSC15013 | 2672 | 6234 | 1402 | 2326 |
| CG6470 | DRSC19994 | 2011 | 6913 | 865 | 2250 |
| Hacd2 (3-hydroxyacyl-CoA dehydratase 2) | DRSC03181 | 3360 | 6201 | 1538 | 3308 |
| laf (labial associated factor) | DRSC12246 | 16544 | – | 5157 | – |
| Ptp69D (Protein tyrosine phosphatase 69D) | DRSC11258 | 5360 | – | 2951 | – |
| Ilp1 (Insulin-like peptide 1) | DRSC10174 | 4779 | – | 2152 | – |
| CG5897 | DRSC10555 | 5740 | – | 2912 | – |
| CG32191 | DRSC10522 | 5970 | – | 2720 | – |
| Ctu1 (Cytosolic thiouridylase subunit 1) | DRSC07069 | 2539 | 4745 | 855 | 2420 |
| CG1575 | DRSC18069 | 1594 | 6344 | 778 | 1083 |
| slp2 (sloppy paired 2) | DRSC00836 | 3051 | 8576 | 941 | 3344 |
| Atg4b (Autophagy-related 4b) | DRSC15988 | 10069 | – | 3029 | – |
| CG31106 | DRSC14655 | 13104 | – | 10306 | – |
| l(1)G0469 (lethal (1) G0469) | DRSC19412 | 4103 | 10832 | 1569 | 3833 |
| l(1)G0469 (lethal (1) G0469) | DRSC19462 | 17539 | – | 7021 | – |
| Vps26 (Vacuolar protein sorting 26) | DRSC18555 | 2384 | 6944 | 1232 | 2166 |
| Hers + amn | DRSC20306 | 18898 | – | 12128 | – |
| rhea | DRSC11300 | 1367 | 7424 | 1120 | 3238 |
| CG6972 | DRSC16159 | 24524 | – | 18103 | – |
| Abd-B (Abdominal B) | DRSC14098 | 12265 | – | 2134 | – |
| Abd-B (Abdominal B) | DRSC14337 | 17367 | – | 2440 | – |
| Tom20 (Translocase of outer membrane 20) | DRSC10899 | 9018 | – | 3857 | – |
| CG5217 | DRSC15740 | 10620 | – | 3709 | – |
| CG31058 (retired record) | DRSC15840 | 4887 | – | 826 | – |
| h-cup (heineken-cup) | DRSC15973 | 4890 | – | 1621 | – |
| CG31294 | DRSC22217 | 6.76e5 | 7.41e5 | 3.00e5 | 3.35e5 |
| CG31921 | DRSC00013 | 25137 | – | 12336 | – |
| Pgls (6-phosphogluconolactonase) | DRSC19769 | 17289 | – | 8301 | – |
| Hasp (Hig-anchoring scaffold protein) | DRSC02022 | 14464 | – | 4148 | – |
| CG7079 | DRSC16192 | 12876 | – | 3932 | – |
| Bap111 (Brahma associated protein 111kD) | DRSC18419 | 2087 | 6896 | 793 | 2292 |
| CG30022 | DRSC22405 | 5.68e5 | 5.97e5 | 2.11e5 | 2.04e5 |
| sim (single-minded) | DRSC17054 | 10481 | – | 3441 | – |
| Pp1-Y2 (Protein phosphatase 1, Y-linked 2) | DRSC21608 | 5.76e5 | 5.11e5 | 1.98e5 | 1.49e5 |
| CG13059 | DRSC09942 | 9261 | – | 3949 | – |
| CG5050 | DRSC02807 | 2433 | 7521 | 1339 | 3457 |
| halo | DRSC00705 | 3184 | 8221 | 1216 | 3169 |
| CG15765 | DRSC18071 | 2005 | 5415 | 375 | 674 |
| otk (off-track) | DRSC07658 | 10624 | – | 2909 | – |
| cid (centromere identifier) | DRSC05429 | 15533 | – | 12916 | – |
| cid (centromere identifier) | DRSC07592 | 6880 | – | 2999 | – |
| COX7C (Cytochrome c oxidase subunit 7C) | DRSC06831 | 8050 | – | 2483 | – |
| CG30380 | DRSC05069 | 18348 | – | 8389 | – |
| Or43a (Odorant receptor 43a) | DRSC07485 | 2453 | 10195 | 717 | 2807 |
| TwdlV (TweedleV) | DRSC12226 | 16124 | – | 5202 | – |
| Cyp6t2Psi (pseudo) | DRSC01840 | 15963 | – | 12832 | – |
| CG7985 | DRSC14128 | 3315 | 8880 | 1735 | 2368 |
| Top3alpha (Topoisomerase 3alpha) | DRSC03460 | 1452 | 7516 | 505 | 2561 |
| GLS (Glutaminase) | DRSC07261 | 13217 | – | 3629 | – |
| CG7707 | DRSC10903 | 8530 | – | 3303 | – |
| Cyp6a23 (Cytochrome P450 6a23) | DRSC07383 | 7996 | – | 3409 | – |
| Sar1 (Secretion-associated Ras-related 1) | DRSC17049 | 3904 | 7250 | 1733 | 2823 |
| Sar1 (Secretion-associated Ras-related 1) | DRSC22115 | 8.48e5 | 7.50e5 | 4.21e5 | 5.10e5 |
| eIF4G1 (eukaryotic translation initiation factor 4G1) | DRSC17218 | 2839 | 4881 | 844 | 1973 |
| Bace (beta-site APP-cleaving enzyme) | DRSC02197 | 4633 | – | 496 | – |
| Arr1 (Arrestin 1) | DRSC01867 | 3667 | 7492 | 1056 | 4058 |
| CG11158 | DRSC19389 | 16790 | – | 10242 | – |
| PNPase (Polynucleotide phosphorylase) | DRSC14304 | 3194 | 9584 | 1572 | 3338 |
| Pkg21D (Protein kinase, cGMP-dependent at 21D) | DRSC00772 | 5894 | – | 3260 | – |

No new results follow: entries from further up.
| predicted target | amplicon | firefly reporter light, replicate 1 | firefly reporter light, replicate 2 | Renilla control light, replicate 1 | Renilla control light, replicate 2 |
| --- | --- | --- | --- | --- | --- |
| CG5217 | DRSC15740 | 10620 | – | 3709 | – |
| CG31058 (retired record) | DRSC15840 | 4887 | – | 826 | – |
| h-cup (heineken-cup) | DRSC15973 | 4890 | – | 1621 | – |
| CG31294 | DRSC22217 | 6.76e5 | 7.41e5 | 3.00e5 | 3.35e5 |
| CG31921 | DRSC00013 | 25137 | – | 12336 | – |
| Pgls (6-phosphogluconolactonase) | DRSC19769 | 17289 | – | 8301 | – |
| Hasp (Hig-anchoring scaffold protein) | DRSC02022 | 14464 | – | 4148 | – |
| CG7079 | DRSC16192 | 12876 | – | 3932 | – |
